Measured values taken from PMC4424400.
Read-outs that look alike come from different tables or passages of the source. Results are given in words; binding and its absence hold for the method and conditions named. Binding seen in cells or lysates may run through a third protein. Here binding means that the protein was enriched with, or labelled near, the bait; the list need not be complete.

Chains of the proteins cited; added tags and fusions are not shown. Residues count along the entry.
UniProt P04775: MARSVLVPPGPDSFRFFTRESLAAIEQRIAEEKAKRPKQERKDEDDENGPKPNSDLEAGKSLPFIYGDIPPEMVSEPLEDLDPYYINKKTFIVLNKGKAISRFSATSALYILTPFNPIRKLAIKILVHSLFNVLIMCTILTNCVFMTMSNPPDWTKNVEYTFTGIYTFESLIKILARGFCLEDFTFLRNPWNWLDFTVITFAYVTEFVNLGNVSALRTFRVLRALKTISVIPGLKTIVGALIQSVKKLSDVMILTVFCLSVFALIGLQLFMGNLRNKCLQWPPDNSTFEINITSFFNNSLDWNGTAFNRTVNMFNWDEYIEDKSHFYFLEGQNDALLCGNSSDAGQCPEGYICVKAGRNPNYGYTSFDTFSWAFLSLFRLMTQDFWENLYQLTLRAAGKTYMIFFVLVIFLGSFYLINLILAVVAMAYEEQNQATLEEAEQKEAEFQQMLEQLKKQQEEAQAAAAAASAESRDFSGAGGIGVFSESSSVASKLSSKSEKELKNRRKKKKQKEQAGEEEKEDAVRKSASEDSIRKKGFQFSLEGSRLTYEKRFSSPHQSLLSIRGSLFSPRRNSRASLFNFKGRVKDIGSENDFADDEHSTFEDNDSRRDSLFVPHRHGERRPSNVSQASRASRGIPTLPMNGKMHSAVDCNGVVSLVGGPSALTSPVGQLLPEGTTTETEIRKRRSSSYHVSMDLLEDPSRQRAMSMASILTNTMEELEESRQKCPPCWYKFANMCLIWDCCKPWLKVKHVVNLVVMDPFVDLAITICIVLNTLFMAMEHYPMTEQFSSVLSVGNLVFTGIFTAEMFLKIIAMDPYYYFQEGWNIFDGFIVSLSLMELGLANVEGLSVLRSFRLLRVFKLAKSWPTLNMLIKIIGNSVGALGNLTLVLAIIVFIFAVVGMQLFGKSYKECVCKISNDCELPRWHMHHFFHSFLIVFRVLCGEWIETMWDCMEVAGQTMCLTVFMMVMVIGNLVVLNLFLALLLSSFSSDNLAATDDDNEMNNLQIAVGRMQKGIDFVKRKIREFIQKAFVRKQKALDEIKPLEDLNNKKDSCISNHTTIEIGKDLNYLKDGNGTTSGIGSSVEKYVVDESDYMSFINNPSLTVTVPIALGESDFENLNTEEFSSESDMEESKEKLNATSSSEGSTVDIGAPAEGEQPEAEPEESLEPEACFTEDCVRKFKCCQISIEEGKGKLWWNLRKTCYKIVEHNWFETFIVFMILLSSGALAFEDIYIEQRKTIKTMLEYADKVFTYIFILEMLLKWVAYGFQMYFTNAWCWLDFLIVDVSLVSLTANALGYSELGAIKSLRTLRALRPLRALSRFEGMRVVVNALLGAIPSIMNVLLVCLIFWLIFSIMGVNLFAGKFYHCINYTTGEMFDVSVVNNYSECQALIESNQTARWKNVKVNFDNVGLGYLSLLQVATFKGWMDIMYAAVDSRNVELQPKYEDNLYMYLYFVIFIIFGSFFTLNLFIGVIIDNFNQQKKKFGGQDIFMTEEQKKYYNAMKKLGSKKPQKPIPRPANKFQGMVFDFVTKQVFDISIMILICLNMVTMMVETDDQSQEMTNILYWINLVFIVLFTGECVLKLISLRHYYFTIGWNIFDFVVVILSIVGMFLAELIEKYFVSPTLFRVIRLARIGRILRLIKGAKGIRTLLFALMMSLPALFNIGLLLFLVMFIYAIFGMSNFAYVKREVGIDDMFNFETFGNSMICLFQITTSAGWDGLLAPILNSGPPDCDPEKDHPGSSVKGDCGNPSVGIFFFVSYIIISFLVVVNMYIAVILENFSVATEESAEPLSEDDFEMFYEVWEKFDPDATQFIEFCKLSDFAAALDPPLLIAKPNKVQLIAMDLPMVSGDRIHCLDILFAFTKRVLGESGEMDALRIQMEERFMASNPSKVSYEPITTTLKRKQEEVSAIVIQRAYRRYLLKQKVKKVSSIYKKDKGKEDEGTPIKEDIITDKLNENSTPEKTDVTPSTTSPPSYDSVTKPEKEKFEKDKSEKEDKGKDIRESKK
UniProt P68511: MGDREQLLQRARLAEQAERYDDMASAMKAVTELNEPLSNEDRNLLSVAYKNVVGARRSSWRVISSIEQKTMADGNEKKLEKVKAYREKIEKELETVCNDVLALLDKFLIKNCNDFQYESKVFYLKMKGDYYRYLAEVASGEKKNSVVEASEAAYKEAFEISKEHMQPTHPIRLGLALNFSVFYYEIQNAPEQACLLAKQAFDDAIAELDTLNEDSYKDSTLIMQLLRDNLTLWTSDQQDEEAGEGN
UniProt O70511: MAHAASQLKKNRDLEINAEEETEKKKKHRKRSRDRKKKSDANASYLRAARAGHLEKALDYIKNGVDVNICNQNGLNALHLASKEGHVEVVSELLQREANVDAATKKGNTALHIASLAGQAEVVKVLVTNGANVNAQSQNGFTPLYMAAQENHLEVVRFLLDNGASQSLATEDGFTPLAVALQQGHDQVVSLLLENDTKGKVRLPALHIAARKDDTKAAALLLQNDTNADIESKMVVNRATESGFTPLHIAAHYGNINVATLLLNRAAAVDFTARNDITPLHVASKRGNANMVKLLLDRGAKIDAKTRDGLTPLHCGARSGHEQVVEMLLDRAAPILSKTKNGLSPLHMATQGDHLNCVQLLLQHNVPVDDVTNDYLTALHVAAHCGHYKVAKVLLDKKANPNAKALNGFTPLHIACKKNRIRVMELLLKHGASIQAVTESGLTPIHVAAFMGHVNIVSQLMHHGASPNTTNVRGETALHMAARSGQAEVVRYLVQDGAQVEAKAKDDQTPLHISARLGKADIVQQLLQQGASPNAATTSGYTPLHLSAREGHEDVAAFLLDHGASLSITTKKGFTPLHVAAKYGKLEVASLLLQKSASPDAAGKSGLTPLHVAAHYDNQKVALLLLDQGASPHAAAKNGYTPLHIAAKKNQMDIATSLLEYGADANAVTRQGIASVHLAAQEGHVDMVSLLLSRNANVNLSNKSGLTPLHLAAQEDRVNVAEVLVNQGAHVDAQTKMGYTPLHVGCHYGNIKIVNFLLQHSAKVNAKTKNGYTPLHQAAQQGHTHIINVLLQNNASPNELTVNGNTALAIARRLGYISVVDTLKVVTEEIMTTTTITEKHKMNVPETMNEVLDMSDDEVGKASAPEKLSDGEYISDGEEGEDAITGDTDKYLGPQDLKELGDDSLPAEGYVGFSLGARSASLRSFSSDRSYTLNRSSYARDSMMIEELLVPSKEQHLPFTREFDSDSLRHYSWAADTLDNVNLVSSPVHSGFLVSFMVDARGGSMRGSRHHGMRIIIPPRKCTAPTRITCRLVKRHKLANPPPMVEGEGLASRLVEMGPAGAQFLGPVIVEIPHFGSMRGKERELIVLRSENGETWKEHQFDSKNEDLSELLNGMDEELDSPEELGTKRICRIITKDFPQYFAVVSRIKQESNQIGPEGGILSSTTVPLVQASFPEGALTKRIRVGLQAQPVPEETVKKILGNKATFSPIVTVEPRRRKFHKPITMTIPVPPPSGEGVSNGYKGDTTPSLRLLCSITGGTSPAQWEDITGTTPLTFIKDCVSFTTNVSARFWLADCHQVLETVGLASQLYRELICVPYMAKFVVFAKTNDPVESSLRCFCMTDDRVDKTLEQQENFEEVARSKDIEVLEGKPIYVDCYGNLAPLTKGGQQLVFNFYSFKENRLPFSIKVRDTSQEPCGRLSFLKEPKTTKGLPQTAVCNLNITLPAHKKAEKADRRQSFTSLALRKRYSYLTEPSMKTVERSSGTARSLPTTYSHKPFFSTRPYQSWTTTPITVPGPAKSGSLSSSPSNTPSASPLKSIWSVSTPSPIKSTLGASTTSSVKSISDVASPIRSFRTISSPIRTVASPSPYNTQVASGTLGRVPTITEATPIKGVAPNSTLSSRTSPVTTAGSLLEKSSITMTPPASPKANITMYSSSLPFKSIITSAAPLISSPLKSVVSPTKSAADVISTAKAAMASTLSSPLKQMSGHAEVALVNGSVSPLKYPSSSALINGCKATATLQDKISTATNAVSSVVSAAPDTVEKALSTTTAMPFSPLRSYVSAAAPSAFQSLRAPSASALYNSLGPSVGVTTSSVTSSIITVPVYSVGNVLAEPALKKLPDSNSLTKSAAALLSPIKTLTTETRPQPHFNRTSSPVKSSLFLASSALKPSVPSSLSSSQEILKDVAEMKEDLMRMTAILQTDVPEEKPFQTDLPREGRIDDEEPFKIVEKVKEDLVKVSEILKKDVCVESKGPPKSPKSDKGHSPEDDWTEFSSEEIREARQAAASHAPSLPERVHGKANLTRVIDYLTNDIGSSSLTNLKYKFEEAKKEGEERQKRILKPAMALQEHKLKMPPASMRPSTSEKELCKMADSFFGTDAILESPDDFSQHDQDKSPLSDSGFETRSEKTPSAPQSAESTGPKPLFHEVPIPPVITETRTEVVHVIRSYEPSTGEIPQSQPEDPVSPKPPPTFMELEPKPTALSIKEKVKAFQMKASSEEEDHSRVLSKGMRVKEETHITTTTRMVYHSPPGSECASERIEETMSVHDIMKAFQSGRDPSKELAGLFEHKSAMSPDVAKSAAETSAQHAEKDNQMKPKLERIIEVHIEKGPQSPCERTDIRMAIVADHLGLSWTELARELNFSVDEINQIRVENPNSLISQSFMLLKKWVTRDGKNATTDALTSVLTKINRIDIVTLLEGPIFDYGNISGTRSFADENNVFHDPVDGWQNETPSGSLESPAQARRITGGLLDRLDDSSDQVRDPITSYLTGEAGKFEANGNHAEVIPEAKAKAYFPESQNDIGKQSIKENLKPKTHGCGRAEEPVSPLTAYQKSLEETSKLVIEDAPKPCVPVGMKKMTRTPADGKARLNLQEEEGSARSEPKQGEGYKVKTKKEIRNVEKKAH
UniProt P11275: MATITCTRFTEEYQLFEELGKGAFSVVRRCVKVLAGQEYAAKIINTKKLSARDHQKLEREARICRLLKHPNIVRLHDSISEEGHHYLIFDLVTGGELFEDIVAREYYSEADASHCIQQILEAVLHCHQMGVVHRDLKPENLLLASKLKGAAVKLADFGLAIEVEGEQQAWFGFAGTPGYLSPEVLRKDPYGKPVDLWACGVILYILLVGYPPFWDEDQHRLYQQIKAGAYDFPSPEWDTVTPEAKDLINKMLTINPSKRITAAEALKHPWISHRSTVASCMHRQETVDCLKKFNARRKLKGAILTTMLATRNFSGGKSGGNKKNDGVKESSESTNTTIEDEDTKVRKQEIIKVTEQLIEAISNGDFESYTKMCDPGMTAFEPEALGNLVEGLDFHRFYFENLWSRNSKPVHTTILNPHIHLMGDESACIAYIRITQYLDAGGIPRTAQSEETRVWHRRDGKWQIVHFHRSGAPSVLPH
UniProt P08413: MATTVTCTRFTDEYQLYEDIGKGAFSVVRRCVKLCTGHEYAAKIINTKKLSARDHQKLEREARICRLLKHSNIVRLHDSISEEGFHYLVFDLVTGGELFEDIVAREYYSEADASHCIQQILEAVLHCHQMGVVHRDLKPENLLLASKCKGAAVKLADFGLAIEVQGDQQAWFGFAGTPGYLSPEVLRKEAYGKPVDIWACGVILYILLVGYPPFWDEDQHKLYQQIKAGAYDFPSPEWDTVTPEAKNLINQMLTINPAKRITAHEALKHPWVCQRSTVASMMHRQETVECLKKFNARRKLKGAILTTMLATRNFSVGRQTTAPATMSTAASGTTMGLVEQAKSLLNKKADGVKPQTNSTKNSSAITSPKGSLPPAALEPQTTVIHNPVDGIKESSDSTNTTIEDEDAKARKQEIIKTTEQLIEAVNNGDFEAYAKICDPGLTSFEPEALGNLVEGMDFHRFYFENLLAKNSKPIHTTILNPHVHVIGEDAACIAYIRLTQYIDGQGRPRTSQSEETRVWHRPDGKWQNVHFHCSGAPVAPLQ
UniProt P54900, residues 30-215: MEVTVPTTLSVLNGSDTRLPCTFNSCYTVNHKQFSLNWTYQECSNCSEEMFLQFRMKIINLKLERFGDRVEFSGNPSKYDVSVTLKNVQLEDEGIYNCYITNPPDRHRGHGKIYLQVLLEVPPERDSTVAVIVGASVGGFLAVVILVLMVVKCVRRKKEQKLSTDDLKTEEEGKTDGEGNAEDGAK

B1: Fibroblast growth factor 12 (FGF12), native, from rat brain (protein, UniProt P61150 1-243)
chain: MAAAIASSLIRQKRQARESNSDRVSASKRRSSPSKDGRSLCERHVLGVFSKVRFCSGRKRPVRRRPEPQLKGIVTRLFSQQGYFLQMHPDGTIDGTKDENSDYTLFNLIPVGLRVVAIQGVKASLYVAMNGEGYLYSSDVFTPECKFKESVFENYYVIYSSTLYRQQESGRAWFLGLNKEGQIMKGNRVKKTKPSSHFVPKPIEVCMYREPSLHEIGEKQGRSRKSSGTPTMNGGKVVNQDST

How the values were obtained:
[1] = target: Voltage-gated sodium channel 1.2 (Nav1.2) alpha subunit, native, from rat brain (rat (endogenous in adult rat brain)) (UniProt P04775); test: affinity purification with mass spectrometry; anti-Nav1.2 monoclonal K69/3 immobilised on Protein-A/G beads; adult rat brain crude membrane extract in 1% Triton X-100, 0.15 M NaCl, 1 mM EDTA, 10 mM Tris-HCl pH 8.0; overnight at 4 °C; control mouse IgG; label-free quantitative nanoLC-MS/MS
[2] = target: Voltage-gated sodium channel 1.2 (Nav1.2) alpha subunit, native, from rat brain (rat (endogenous in adult rat brain)) (UniProt P04775); test: as above; remark: listed apart in the source

| Molecule | binding [1] | binding [2] |
| --- | --- | --- |
| 14-3-3η, native, from rat brain (from UniProt P68511 1-246) | binds |  |
| Ankyrin-3 (Ankyrin-G), native, from rat brain (from UniProt O70511 1-2622) | binds |  |
| Ca2+/calmodulin-dependent protein kinase II alpha (CaMKII-α), native, from rat brain (from UniProt P11275 1-478) (enzyme) | binds |  |
| Ca2+/calmodulin-dependent protein kinase II beta (CaMKII-β), native, from rat brain (from UniProt P08413 1-542) (enzyme) | binds |  |
| Nav channel beta2 subunit, native, from rat brain (from UniProt P54900 30-215) | binds |  |
| B1 |  | binds |
